These are yes or no findings as the source states them, for the method shown.

This assay has as its target T1, KLHL20 Kelch domain (human) (UniProt Q9Y2M5).
T1 sequence: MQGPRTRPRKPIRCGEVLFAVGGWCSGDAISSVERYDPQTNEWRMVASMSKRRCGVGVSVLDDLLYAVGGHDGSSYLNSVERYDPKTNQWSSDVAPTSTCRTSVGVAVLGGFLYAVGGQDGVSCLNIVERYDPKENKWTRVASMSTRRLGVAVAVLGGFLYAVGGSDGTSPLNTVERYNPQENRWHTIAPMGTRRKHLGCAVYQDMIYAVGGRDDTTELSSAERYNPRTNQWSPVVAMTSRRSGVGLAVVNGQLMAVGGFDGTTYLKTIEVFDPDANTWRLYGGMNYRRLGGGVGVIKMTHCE
Briefly: SPR; BIACORE S200, 25°C; Kelch domains of KLHL20 and KLHL3 immobilised by amine coupling on CM5; peptides injected at 1.6-200 μM in HBS-P, 30 μL/min; one-site steady-state affinity fit; both purified.

As for SKLRELGRRDAADFLLKA [DAPK02 Peptide (DAPK1 residues 1,378-1,395)], the binding result is reported as “no binding (tested: 200 μM)”.

The values are drawn from PMC6720452, “Structural Basis for Recruitment of DAPK1 to the KLHL20 E3 Ligase” (Structure(London, England:1993), 2019).
